Experimental data taken from US7884129B2, “Composition comprising the alcohol compound isolated from the extract of cucurbitaceae family plant having anti-adipogenic and anti-obesity activity” (Helixir Co., Ltd., priority 2003, dated 2011).
At least one compound was matched to its structure with a doubt left.

Test system: Preadipocytes (3T3-L1)
Test: Inhibition of adipocyte differentiation and triglyceride level (Oil Red O staining)
Assay type: cell-based
Details: 3T3-L1 induced with MDI, 8 days, O.D. 490 nm, DHCA 10 to 1000 ug/ml
Method: To determine the inhibiting activity of the compound prepared by Examples 1, i.e., dehydrodiconiferylalcohol (DHCA), on the adipocytes differentiation and triglyceride level, following experiment was performed.
Preadipocytes (3T3-L1) purchased from ATCC (American […], USA) were cultured in RPMI medium containing 10% FBS and MDI cocktail (isobutylmethylxanthine, dexamethasone, insulin) was added thereto for differentiating into mature adipocytes. After two days, the medium was replaced and treated with only insulin. Thereafter, the medium was replaced and equal concentration of insulin was treated again every other day. DHCA ranging from 10 to 1000 ug/ml of the concentrations was treated when the adipocyte differentiation was induced and equal concentration of the DHCA was treated at every replacement of the medium. Troglitazone (Sigma Co.) and 10 uM SB203580 (Sigma Co.) were treated as control groups and 0.01% ethanol was used as a vehicle control. After eight days lapsed, the accumulated fat within differentiated cell was stained with Oil Red 0 staining reagent and the absorbance was determined with optical density qualitatively at 490 nm. The inhibition percentage (%) was calculated by following Empirical Formula 1. The Inhibition Percentage (%)=[O.D. of test group]/[O.D. value of control group]×100 Empirical Formula 1

Cc1c(C)c2c(c(C)c1O)CCC(C)(COc1ccc(CC3SC(=O)NC3=O)cc1)O2 (stereo not shown) [troglitazone, Troglitazone, reference compound]
level of produced triglycerides and adipocytes differentiation: the triglyceride was more produced
